# Library screen at single concentrations

Amino acid sequences for entries named in this document (tags omitted). Residues count along the entry.
UniProt P9WPC5, whole entry: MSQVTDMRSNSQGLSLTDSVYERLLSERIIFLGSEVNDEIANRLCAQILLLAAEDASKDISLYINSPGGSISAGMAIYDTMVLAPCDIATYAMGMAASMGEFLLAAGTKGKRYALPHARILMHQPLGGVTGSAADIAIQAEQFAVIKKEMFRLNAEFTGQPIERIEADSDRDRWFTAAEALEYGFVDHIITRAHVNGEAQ
UniProt P9WPC3, whole entry partner: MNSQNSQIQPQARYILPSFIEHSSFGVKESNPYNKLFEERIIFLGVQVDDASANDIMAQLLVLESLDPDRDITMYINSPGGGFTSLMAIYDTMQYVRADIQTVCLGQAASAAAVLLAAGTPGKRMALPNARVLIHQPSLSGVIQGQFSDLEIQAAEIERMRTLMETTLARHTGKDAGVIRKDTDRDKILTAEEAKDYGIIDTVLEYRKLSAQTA
UniProt P9WNZ1, whole entry: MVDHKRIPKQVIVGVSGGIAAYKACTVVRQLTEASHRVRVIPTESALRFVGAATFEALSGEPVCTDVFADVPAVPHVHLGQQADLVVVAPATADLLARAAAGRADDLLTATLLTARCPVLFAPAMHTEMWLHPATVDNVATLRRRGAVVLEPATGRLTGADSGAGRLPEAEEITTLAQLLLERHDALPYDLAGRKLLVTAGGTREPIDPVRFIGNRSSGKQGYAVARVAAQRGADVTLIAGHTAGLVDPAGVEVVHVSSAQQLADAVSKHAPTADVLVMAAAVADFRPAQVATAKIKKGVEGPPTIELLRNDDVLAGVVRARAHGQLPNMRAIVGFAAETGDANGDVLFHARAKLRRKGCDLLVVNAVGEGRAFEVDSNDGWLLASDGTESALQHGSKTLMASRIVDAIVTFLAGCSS
UniProt Q8IDJ8, 1-583: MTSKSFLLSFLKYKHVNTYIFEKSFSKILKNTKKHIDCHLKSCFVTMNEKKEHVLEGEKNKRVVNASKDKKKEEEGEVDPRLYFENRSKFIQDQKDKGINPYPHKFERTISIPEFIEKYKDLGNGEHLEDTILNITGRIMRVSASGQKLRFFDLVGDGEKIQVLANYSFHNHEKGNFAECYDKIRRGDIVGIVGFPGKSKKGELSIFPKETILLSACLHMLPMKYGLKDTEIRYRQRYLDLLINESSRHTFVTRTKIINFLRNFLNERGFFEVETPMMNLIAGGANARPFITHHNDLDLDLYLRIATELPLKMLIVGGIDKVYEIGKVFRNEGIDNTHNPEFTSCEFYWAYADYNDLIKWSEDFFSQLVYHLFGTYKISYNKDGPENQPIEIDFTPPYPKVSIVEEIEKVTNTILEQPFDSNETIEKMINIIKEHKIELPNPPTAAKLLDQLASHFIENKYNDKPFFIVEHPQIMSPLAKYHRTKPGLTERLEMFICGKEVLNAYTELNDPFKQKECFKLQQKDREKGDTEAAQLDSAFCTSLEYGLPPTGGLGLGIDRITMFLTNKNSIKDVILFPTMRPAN
UniProt Q4DA54, 1-478: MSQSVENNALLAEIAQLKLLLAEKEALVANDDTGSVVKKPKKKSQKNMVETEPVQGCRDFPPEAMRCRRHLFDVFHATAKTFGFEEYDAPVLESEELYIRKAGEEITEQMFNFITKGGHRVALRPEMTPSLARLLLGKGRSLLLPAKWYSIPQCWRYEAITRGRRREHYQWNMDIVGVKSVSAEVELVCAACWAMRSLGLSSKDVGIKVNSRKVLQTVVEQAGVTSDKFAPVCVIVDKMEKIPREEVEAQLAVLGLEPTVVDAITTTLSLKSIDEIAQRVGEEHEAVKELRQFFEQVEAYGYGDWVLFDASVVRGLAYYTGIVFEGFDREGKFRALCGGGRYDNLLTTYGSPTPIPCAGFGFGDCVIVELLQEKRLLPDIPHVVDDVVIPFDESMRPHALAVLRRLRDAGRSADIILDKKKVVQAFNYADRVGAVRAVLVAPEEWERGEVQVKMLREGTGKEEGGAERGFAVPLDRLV
UniProt I6X8D2, whole entry: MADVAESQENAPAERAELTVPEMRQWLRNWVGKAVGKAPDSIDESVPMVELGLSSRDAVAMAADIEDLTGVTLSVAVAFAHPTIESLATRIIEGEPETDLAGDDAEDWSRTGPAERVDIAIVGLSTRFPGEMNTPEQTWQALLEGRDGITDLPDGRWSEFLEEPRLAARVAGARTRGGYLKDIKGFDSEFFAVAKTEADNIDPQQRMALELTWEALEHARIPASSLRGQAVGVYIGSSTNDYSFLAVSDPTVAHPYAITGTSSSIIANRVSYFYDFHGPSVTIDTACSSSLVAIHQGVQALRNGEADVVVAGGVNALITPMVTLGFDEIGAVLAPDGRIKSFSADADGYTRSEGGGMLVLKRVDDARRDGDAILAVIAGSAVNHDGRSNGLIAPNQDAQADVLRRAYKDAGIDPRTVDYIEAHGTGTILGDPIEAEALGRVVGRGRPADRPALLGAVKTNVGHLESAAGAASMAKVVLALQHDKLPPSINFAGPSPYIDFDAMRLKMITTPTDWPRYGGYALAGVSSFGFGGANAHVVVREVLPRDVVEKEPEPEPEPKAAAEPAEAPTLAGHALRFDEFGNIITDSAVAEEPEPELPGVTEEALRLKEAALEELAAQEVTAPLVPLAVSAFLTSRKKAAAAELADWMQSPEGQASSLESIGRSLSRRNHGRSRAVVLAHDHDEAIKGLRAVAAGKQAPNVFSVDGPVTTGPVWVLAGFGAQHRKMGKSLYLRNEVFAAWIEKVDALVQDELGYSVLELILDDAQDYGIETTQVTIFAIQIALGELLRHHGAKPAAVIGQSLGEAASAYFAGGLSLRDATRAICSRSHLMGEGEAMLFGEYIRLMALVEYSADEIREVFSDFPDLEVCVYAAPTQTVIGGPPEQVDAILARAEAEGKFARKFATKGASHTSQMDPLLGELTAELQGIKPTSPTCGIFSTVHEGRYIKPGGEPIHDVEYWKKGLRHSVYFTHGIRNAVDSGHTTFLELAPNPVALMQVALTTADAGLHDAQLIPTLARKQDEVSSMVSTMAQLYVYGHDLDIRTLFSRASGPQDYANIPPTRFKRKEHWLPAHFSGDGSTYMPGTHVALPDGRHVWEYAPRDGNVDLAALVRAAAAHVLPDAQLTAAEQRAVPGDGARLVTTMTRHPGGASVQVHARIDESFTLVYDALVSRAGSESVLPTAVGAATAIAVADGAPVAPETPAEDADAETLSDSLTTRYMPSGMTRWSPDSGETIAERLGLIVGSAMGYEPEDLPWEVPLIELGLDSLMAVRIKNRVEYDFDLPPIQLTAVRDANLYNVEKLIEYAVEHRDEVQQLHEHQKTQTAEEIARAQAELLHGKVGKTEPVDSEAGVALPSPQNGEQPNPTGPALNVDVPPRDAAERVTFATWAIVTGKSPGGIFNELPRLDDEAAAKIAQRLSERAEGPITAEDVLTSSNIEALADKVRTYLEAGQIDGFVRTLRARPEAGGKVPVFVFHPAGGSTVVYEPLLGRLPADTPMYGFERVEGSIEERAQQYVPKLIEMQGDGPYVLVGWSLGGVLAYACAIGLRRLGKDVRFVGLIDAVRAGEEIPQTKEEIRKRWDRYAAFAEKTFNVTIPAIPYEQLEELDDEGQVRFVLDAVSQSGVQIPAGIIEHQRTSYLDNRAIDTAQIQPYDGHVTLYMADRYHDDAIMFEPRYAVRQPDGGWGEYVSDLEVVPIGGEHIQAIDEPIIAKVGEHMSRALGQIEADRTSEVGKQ

Source: ChEMBL document CHEMBL3988442, “University of Dundee, Small-Polar-MMV Screening Library” (2021).

A: 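Protease assay of ClpP1P2, read by the AMC dye that it sets free. Target: ClpP1P2, Mycobacterium tuberculosis (UniProt P9WPC5 and UniProt P9WPC3). Compounds at 50 µM. Higher reads as stronger inhibition, judged from the few compounds that gave an IC50. Most other retested compounds had strongly negative values. Of about 69,000 compounds tested this way, about 10 (0.015%) reached 50% or more in at least one test.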
B: 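Coenzyme A biosynthesis protein CoaBC, Mycobacterium tuberculosis (UniProt P9WNZ1). Enzyme assay of CoaBC with a phosphate dye (Biomol Green) read at 650 nm. Compounds at 30 µM. Direction is inferred from only a few compounds that gave an IC50; most scored high, so higher reads as stronger inhibition. Most strong results did not repeat in a second test. Size under these conditions: about 67,000 compounds, about 40 of them at 50% or above in at least one test.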
C: 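Lysine-tRNA ligase, Plasmodium falciparum 3D7 (UniProt Q8IDJ8). Enzyme assay of the cytosolic lysyl-tRNA synthetase in 384-well plates, read by luminescence. Concentration: 30 µM. Higher reads as stronger inhibition, judged from the few compounds that gave an IC50. About 69,000 compounds were tested under these conditions; 0.071% (about 49) showed 50% or more at least once.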
D: 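Histidine-tRNA ligase, Trypanosoma cruzi CL Brener (UniProt Q4DA54). Enzyme assay of histidyl-tRNA synthetase; the read-out is not stated. Tested at 30 µM. Higher reads as stronger inhibition (inferred: compounds with an IC50 in retests scored well above the rest). Of about 69,000 compounds tested this way, about 31 (0.045%) reached 50% or more in at least one test.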
E: 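Enzyme assay of the thioesterase domain of polyketide synthase 13; the read-out is not stated. Target: Polyketide synthase Pks13, Mycobacterium tuberculosis (UniProt I6X8D2). Concentration: 30 µM. Higher reads as stronger inhibition (inferred from which compounds were picked for retests). About 67,000 compounds were tested under these conditions; 0.46% (about 300) showed 50% or more at least once.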

Each number is a percent effect as filed.
How 0% and 100% were set is not recorded. Most values in the screen are low, and negative values occur.
This is an unselected part of the compounds tested.

COc1ncccc1CNCc1c(C(C)C)nn(C)c1N(C)C gave A: 15.13%; B: 8.678%; C: 0.3959%; D: 0.5435%; E: -37.54%. For COc1ccc(-c2nnc(SC(C)C(N)=O)[nH]2)c(OC)c1 (stereo not drawn) the result was A: -1.024%; B: 2.066%; C: 4.735%; D: 8.333%; E: 2.08%. CC(CNC(=O)c1c[nH]nn1)Oc1ccc(Cl)cc1 (stereo not drawn) gave A: -8.786%; B: 8.156%; C: 3.228%; D: 0.4975%; E: -54.24%. With O=C(CCC(=O)Nc1nnc(C2CCCCC2)s1)NCC1CCCO1 (stereo not drawn) the screen gave A: -15.52%; B: 2.152%; C: 2.88%; D: 0%; E: -9.252%. COc1ccc(CCNCc2ccco2)cc1OC gave A: -3.408%; B: -1.79%; C: -1.973%; D: 10.1%; E: 5.491%. With CCN1CCN(C(=O)Cn2nc(C(F)(F)F)c(Br)c2C2CC2)CC1 the screen gave A: -7.596%; B: 0.4819%; C: -1.213%; D: 6.931%; E: -2.446%. Result for COc1ccccc1OCC(=O)NS(=O)(=O)c1cc(F)ccc1F was A: -6.005%; B: -4.904%; C: -1.087%; D: 0%; E: -10.97%.

For CN(C(=O)c1ccn(C)n1)[C@@H]1CCC[C@@H](Oc2ccccc2)[C@@H]1O the result was A: -0.9335%; B: 0.2433%; C: 0.6375%; D: 3.731%; E: 3.909%. With CNc1cccc(C2CN(C(=O)c3c[nH]cn3)CCO2)n1 (stereo not drawn) the screen gave A: 5.599%; B: -11.41%; C: 0.4864%; D: 7.752%; E: 5.179%. Result for CCNC(=O)Cn1ncc(N(C)CCc2ccccc2)cc1=O was A: -8.552%; B: 5.144%; C: 0.3132%; D: 2.618%; E: 26.39%. For CCn1ccnc1CN1CCN(CCOc2cccc(C#N)c2)CC1 the result was A: 15.05%; B: 6.117%; C: -2.244%; D: 0.3802%; E: -11.53%. Cc1cc(N2CCC(Cc3ncccn3)C2)ncn1 (stereo not drawn) read A: -6.654%; B: 6.176%; C: 3.095%; D: 5.385%; E: -6.875%. NC(=O)C1CCN(C(=O)c2cc(S(=O)(=O)N3CCCCC3)cs2)CC1 gave A: -4.99%; B: 12.68%; C: -1.57%; D: 5.056%; E: 8.822%. With Cc1ccc(OC2CCN(C(=O)C(C)Cn3cccn3)CC2)cc1 (stereo not drawn) the screen gave A: -13.81%; B: 0%; C: 5.127%; D: 5.946%; E: -21.4%.

Cn1ccc(C(=O)NCc2ccccc2CN2CCCCC2)cc1=O gave A: -29.64%; B: 3.823%; C: 1.051%; D: 0.5714%; E: 1.235%. With CS(=O)(=O)N1CCC2(CC1)CC(OCC1CCOCC1)CO2 (stereo not drawn) the screen gave A: -7.787%; B: 1.833%; C: 2.327%; D: 3.448%; E: -4.221%. Result for CC(C)C(C)NC(=O)c1cc(Br)c2c(c1)OCCO2 (stereo not drawn) was A: -21.96%; B: 1.567%; C: 2.609%; D: 3.955%; E: -12.85%. For CCc1[nH]c2ccc(CNc3cncc(C(=O)N(C)C)n3)cc2c1C the result was A: -11.21%; B: 5.897%; C: 4.651%; D: 7.317%; E: -6.339%. CC(C)N1CCOC(CC(=O)N2CC(c3ccncc3)C2)C1 (stereo not drawn) read A: -9.633%; B: 7.654%; C: -1.886%; D: 0.4975%; E: -7.609%. Cc1ccc(N2CCC(C(=O)O)(n3ccc(C(C)C)n3)CC2)nn1 read A: -7.477%; B: -5.371%; C: 7.701%; D: 9.091%; E: -3.613%. Result for CN(C)C(C(=O)N1CC(Oc2ccccc2F)C1)c1ccc(F)cc1 (stereo not drawn) was A: -4.917%; B: -5.622%; C: -0.09999%; D: 4.255%; E: -14.78%.

Result for Cc1cnc(C)c(-c2cc(O)c3c(c2)CN(c2ncccn2)CCO3)n1 was A: 8.115%; B: 4.099%; C: 0.7275%; D: -5.797%; E: 0.7829%. CN1C[C@@H]2CN(C(=O)C3CCOC3)C[C@@H]2C1=O (stereo partly drawn) gave A: -0.5685%; B: -4.206%; C: 1.304%; D: 6.522%; E: 32.96%. With CCN(Cc1ccncc1)C(=O)c1cn(CC2CCCNC2)nn1 (stereo not drawn) the screen gave A: -3.391%; B: 1.238%; C: 4.193%; D: 2.41%; E: -3.014%. With COc1c(CNCc2ccccc2-n2ccnc2)c(C)nn1C the screen gave A: -2.481%; B: 9.921%; C: 2.833%; D: 1.02%; E: -13.45%. c1cncc(OCc2noc3c2CN(Cc2ccsc2)CC3)c1 gave A: 16.89%; B: 5.514%; C: 0.8839%; D: 0%; E: 8.914%. Result for CN(C)C(=O)Cn1c(C2CC2)c(CN2CCC(O)CC2)c2cccnc21 was A: 4.649%; B: 4.294%; C: 0.01431%; D: 8.527%; E: -20.74%. Result for Cc1nnc(NCCC(=O)N(C)Cc2ccccc2)c(C#N)c1C was A: 8.548%; B: 5.837%; C: 19.48%; D: 11.67%; E: -11.98%.

Result for CCOCC(O)CNc1cncc(Br)c1 (stereo not drawn) was A: -5.055%; B: -0.2066%; C: 6.57%; D: 6.349%; E: 4.389%.

Some entries from above, unchanged:

- COc1ncccc1CNCc1c(C(C)C)nn(C)c1N(C)C | A: 15.13%; B: 8.678%; C: 0.3959%; D: 0.5435%; E: -37.54%
- CN(C)C(=O)Cn1c(C2CC2)c(CN2CCC(O)CC2)c2cccnc21 | A: 4.649%; B: 4.294%; C: 0.01431%; D: 8.527%; E: -20.74%
- CCNC(=O)Cn1ncc(N(C)CCc2ccccc2)cc1=O | A: -8.552%; B: 5.144%; C: 0.3132%; D: 2.618%; E: 26.39%